These are yes or no findings as the source states them, for the method shown. Binding seen in cells or lysates may run through a third protein. A yes stands for co-enrichment or nearness to the bait. Other partners may have been found.
Biological target: GFP-tagged Rab-coupling protein (GFP-RCP)
Test: affinity purification with mass spectrometry; GFP-RCP (control: GFP) immunoprecipitated with anti-GFP magnetic beads from lysates of transfected A2780 cells; lysis buffer with 0.15% Tween-20, 200 mM NaCl, 75 mM Tris-HCl pH 7; 2 h at 4 °C; SDS-PAGE; MALDI-TOF mass spectrometry

Binder	binding
Peroxisomal multifunctional enzyme type 2 (enzyme, UniProt P51659 1-736) MGSPLRFDGRVVLVTGAGAGLGRAYALAFAERGALVVVNDLGGDFKGVGKGSLAADKVVEEIRRRGGKAVANYDSVEEGEKVVKTALDAFGRIDVVVNNAGILRDRSFARISDEDWDIIHRVHLRGSFQVTRAAWEHMKKQKYGRIIMTSSASGIYGNFGQANYSAAKLGLLGLANSLAIEGRKSNIHCNTIAPNAGSRMTQTVMPEDLVEALKPEYVAPLVLWLCHESCEENGGLFEVGAGWIGKLRWERTLGAIVRQKNHPMTPEAVKANWKKICDFENASKPQSIQESTGSIIEVLSKIDSEGGVSANHTSRATSTATSGFAGAIGQKLPPFSYAYTELEAIMYALGVGASIKDPKDLKFIYEGSSDFSCLPTFGVIIGQKSMMGGGLAEIPGLSINFAKVLHGEQYLELYKPLPRAGKLKCEAVVADVLDKGSGVVIIMDVYSYSEKELICHNQFSLFLVGSGGFGGKRTSDKVKVAVAIPNRPPDAVLTDTTSLNQAALYRLSGDWNPLHIDPNFASLAGFDKPILHGLCTFGFSARRVLQQFADNDVSRFKAIKARFAKPVYPGQTLQTEMWKEGNRIHFQTKVQETGDIVISNAYVDLAPTSGTSAKTPSEGGKLQSTFVFEEIGRRLKDIGPEVVKKVNAVFEWHITKGGNIGAKWTIDLKSGSGKVYQGPAKGAADTTIILSDEDFMEVVLGKLDPQKAFFSGRLKARGNIMLSQKLQMILKDYAKL	binds
Myeloid-associated differentiation marker (protein, UniProt Q96S97 1-322) MPVTVTRTTITTTTTSSSGLGSPMIVGSPRALTQPLGLLRLLQLVSTCVAFSLVASVGAWTGSMGNWSMFTWCFCFSVTLIILIVELCGLQARFPLSWRNFPITFACYAALFCLSASIIYPTTYVQFLSHGRSRDHAIAATFFSCIACVAYATEVAWTRARPGEITGYMATVPGLLKVLETFVACIIFAFISDPNLYQHQPALEWCVAVYAICFILAAIAILLNLGECTNVLPIPFPSFLSGLALLSVLLYATALVLWPLYQFDEKYGGQPRRSRDVSCSRSHAYYVCAWDRRLAVAILTAINLLAYVADLVHSAHLVFVKV	binds
Rab11-FIP5 (protein, UniProt Q9BXF6 1-653) MALVRGAEPAAGPSRWLPTHVQVTVLRARGLRGKSSGAGSTSDAYTVIQVGREKYSTSVVEKTHGCPEWREECSFELPPGALDGLLRAQEADAGPAPWAASSAAACELVLTTMHRSLIGVDKFLGQATVALDEVFGAGRAQHTQWYKLHSKPGKKEKERGEIEVTIQFTRNNLSASMFDLSMKDKPRSPFSKIRDKMKGKKKYDLESASAILPSSAIEDPDLGSLGKMGKAKGFFLRNKLRKSSLTQSNTSLGSDSTLSSASGSLAYQGPGAELLTRSPSRSSWLSTEGGRDSAQSPKLFTHKRTYSDEANQMRVAPPRALLDLQGHLDAASRSSLCVNGSHIYNEEPQGPVRHRSSISGSLPSSGSLQAVSSRFSEEGPRSTDDTWPRGSRSNSSSEAVLGQEELSAQAKVLAPGASHPGEEEGARLPEGKPVQVATPIVASSEAVAEKEGARKEERKPRMGLFHHHHQGLSRSELGRRSSLGEKGGPILGASPHHSSSGEEKAKSSWFGLREAKDPTQKPSPHPVKPLSAAPVEGSPDRKQSRSSLSIALSSGLEKLKTVTSGSIQPVTQAPQAGQMVDTKRLKDSAVLDQSAKYYHLTHDELISLLLQRERELSQRDEHVQELESYIDRLLVRIMETSPTLLQIPPGPPK	binds
5'-nucleotidase (enzyme, UniProt P21589 27-549) WELTILHTNDVHSRLEQTSEDSSKCVNASRCMGGVARLFTKVQQIRRAEPNVLLLDAGDQYQGTIWFTVYKGAEVAHFMNALRYDAMALGNHEFDNGVEGLIEPLLKEAKFPILSANIKAKGPLASQISGLYLPYKVLPVGDEVVGIVGYTSKETPFLSNPGTNLVFEDEITALQPEVDKLKTLNVNKIIALGHSGFEMDKLIAQKVRGVDVVVGGHSNTFLYTGNPPSKEVPAGKYPFIVTSDDGRKVPVVQAYAFGKYLGYLKIEFDERGNVISSHGNPILLNSSIPEDPSIKADINKWRIKLDNYSTQELGKTIVYLDGSSQSCRFRECNMGNLICDAMINNNLRHTDEMFWNHVSMCILNGGGIRSPIDERNNGTITWENLAAVLPFGGTFDLVQLKGSTLKKAFEHSVHRYGQSTGEFLQVGGIHVVYDLSRKPGDRVVKLDVLCTKCRVPSYDPLKMDEVYKVILPNFLANGGDGFQMIKDELLRHDSGDQDINVVSTYISKMKVIYPAVEGRIKFS	binds

From article PMC5355957
